Literature values in patent US11331370B2, “Combination product for the prevention of sexually transmitted infections” (priority 2014, dated 2022).
For at least one compound, name, drawing or mass did not settle the structure.

Settings: cited from earlier work

## C=C1C[C@H]2[C@@H]3CCC4=CC(=O)CC[C@@H]4[C@H]3CC[C@]2(C)[C@@]1(OC(C)=O)C(C)=O [NES, 16-methylene-17α-acetoxy-19-norpregn-4-ene-3,20-dione]
  progestational activity, times higher than that of levonorgestrel: 10 times
  progestational activity, times higher than that of progesterone: 100 times
